Source: doi:10.1101/530402
Where two headings read alike, the source gives them in different places. These are yes or no findings as the source states them, for the method shown. In cells and extracts the contact can be indirect. Here binding means that the protein was enriched with, or labelled near, the bait; the list need not be complete.

Protein sequences, listed by entry. Tags and fused reporters are not part of them. Residues count along the entry.
UniProt O60603: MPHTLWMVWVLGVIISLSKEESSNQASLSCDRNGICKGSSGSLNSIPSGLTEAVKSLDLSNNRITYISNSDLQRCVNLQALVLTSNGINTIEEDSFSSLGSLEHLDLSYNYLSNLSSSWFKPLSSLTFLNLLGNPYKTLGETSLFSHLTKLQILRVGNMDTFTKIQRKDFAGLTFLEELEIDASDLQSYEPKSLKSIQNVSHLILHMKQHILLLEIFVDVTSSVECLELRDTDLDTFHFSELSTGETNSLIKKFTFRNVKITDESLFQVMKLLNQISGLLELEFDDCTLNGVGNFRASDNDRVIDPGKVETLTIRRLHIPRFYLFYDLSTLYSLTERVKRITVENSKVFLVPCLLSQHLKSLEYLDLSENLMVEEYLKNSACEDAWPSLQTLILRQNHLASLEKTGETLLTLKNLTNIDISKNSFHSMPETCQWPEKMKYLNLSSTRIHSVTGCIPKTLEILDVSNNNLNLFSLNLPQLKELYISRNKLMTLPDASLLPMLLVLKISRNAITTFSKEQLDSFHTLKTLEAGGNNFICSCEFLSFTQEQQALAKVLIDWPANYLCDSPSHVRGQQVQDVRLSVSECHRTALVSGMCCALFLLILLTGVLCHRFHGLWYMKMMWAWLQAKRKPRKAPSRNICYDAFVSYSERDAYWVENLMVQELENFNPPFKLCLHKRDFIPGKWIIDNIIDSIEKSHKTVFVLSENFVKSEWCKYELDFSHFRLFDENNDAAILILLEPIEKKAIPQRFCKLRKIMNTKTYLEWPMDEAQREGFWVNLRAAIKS
UniProt P53396: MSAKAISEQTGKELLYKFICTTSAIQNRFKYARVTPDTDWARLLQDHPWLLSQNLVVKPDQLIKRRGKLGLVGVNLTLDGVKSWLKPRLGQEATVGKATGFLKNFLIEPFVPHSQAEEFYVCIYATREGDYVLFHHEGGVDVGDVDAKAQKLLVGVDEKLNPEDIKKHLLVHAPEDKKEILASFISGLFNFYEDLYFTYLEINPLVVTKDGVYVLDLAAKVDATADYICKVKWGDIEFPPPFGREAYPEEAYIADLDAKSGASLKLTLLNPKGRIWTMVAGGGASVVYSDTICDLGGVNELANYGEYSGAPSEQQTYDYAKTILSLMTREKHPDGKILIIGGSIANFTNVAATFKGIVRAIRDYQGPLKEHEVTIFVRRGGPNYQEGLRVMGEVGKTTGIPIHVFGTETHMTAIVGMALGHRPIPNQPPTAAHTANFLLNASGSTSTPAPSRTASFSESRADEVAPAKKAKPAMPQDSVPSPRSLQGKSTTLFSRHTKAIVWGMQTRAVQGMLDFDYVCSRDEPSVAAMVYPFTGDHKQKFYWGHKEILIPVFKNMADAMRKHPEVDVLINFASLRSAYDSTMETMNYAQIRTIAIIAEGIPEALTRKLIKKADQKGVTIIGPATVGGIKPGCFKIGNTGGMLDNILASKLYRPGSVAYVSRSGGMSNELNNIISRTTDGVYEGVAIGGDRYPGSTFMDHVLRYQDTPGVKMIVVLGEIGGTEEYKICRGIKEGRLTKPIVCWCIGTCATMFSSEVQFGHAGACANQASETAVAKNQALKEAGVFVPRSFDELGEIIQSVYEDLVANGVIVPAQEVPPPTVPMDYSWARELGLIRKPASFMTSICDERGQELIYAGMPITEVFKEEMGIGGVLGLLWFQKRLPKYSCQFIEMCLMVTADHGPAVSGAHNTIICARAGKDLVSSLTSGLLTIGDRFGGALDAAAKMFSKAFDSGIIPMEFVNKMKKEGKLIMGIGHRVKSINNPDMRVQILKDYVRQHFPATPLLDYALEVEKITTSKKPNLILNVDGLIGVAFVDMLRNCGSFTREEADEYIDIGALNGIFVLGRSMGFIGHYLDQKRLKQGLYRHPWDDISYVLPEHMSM
UniProt P61163: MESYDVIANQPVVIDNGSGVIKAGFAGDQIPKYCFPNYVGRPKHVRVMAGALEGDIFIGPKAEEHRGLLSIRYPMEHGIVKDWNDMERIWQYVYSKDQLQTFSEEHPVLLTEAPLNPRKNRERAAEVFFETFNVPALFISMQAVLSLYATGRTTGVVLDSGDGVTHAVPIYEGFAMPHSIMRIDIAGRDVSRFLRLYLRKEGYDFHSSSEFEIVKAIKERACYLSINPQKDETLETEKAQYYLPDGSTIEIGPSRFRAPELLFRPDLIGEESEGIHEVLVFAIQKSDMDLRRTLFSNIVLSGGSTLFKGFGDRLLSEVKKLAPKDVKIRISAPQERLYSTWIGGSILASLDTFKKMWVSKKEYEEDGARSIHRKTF
UniProt P14625, residues 22-803: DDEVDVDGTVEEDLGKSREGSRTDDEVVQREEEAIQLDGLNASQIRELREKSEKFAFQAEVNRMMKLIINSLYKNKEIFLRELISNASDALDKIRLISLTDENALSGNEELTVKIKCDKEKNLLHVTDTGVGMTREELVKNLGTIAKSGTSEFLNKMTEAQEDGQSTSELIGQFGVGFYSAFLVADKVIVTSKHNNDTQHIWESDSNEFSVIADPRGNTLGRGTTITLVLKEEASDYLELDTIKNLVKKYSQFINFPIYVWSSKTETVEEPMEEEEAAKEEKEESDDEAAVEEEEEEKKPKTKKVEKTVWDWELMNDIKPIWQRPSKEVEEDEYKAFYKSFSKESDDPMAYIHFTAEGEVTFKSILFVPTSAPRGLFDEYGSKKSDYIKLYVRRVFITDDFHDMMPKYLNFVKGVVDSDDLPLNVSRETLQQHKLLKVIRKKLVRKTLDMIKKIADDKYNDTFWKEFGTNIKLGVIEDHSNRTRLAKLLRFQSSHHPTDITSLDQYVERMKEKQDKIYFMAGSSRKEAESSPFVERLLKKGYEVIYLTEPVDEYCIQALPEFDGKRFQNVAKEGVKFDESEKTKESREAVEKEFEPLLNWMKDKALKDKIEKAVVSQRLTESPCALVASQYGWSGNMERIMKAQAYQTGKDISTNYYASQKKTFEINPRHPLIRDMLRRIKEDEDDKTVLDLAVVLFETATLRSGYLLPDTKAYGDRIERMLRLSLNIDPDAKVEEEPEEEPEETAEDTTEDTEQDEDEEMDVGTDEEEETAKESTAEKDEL

Assays:
[1] = molecular target: HA-tagged human Toll-like receptor 2 (human) (UniProt O60603); experiment: affinity purification with mass spectrometry
[2] = molecular target: HA-tagged human Toll-like receptor 2 (human) (UniProt O60603); experiment: affinity purification with mass spectrometry; remark: listed apart in the source

binding [1] | binding [2] | Molecule
binds | – | ATP citrate lyase (from UniProt P53396 1-1101) (enzyme)
binds | – | alpha-centractin (from UniProt P61163 1-376)
binds | – | heat shock protein 90-beta (HSP90B1) (from UniProt P14625 22-803)
– | binds | myristoylated alanine-rich C kinase substrate-like protein 1 (protein, UniProt P49006 1-195) MGSQSSKAPRGDVTAEEAAGASPAKANGQENGHVKSNGDLSPKGEGESPPVNGTDEAAGATGDAIEPAPPSQGAEAKGEVPPKETPKKKKKFSFKKPFKLSGLSFKRNRKEGGGDSSASSPTEEEQEQGEIGACSDEGTAQEGKAAATPESQEPQAKGAEASAASEEEAGPQATEPSTPSGPESGPTPASAEQNE
